Our source for the inhibition and IC50 values is patent publication US7977304B2, “FK 228 derivates as HDAC inhibitors” (University of Southampton Highfield, priority 2005, dated 2011).

Format in all cases: cell-based
Test [1] has as its system TNFα production from peripheral blood mononuclear cells (PBMCs). As to the kind of experiment: Activity Assay 7: LPS-induced TNFα secretion from PBMCs (QUANTIKINE immunoassay). The note with it: Homo sapiens, PBMC; Concentration 200 nM. Here is the method: We analysed the ability of compounds to inhibit the production of TNFα from peripheral blood mononuclear cells (PBMCs). TNF-α immunoassays were carried out using the QUANTIKINE® Human TNF-α assay kit (R&D systems, Abingdon UK) according to the manufacturer's instructions. Human whole blood was separated using Ficol Paque™ Plus (GE Healthcare, Arnersham, UK) and the PBMCs were plated in 24 well plates, at a density of 2.5×10^6 in 500 μl of cell culture medium per well. Compounds were added 1 hour later in volumes of 100 μl at 6× final concentration. Five hours later lipopolysaccharide (LSP, Sigma, Poole, UK) was added in a volume of 10 μl at 60× final concentration. Plates were mixed and left overnight at 37° C. 5% C02. Plates were centrifuged and cell supernatant was transferred to a new plate. The QUANTIKINE® assay reagents and standards were prepared according to the manufacturer instructions. […] 50 μl of stop solution was added to each well in the same order as the substrate solution and the plate was read on a Biorad 680 96 well plate reader (Bio-Rad, Hemel Hempstead, UK) at 450 nm with λ correction at 570 nm. TNF-α levels were determined for mean values of duplicate samples using absorbance in nm, calibration zero values were subtracted from all results to correct for the addition of calibrator diluent in the assay.

The test system of test [2] is LNCAP prostate cancer cells. As to the kind of experiment: Activity Assay 6: CyQuant cell growth inhibition, LNCAP. The note with it: Homo sapiens, 96 h, 4 days. Here is the method:
(§1) We analysed the ability of compounds to inhibit the in vitro growth of human cancer cells. Cell proliferation assays were performed using the CyQuant™ assay system (Molecular Probes, Inc. USA) according to the manufacturer's instructions. MCF7 breast, A2780 ovarian and PC3 and LNCAP prostate cancer cells were plated in 96 well plates, at a density of 1000 cells for MCF7 cells or 5000 cells for M780/PC3/LNCAP cells, in 100 μl of cell culture medium per well. Compounds were added a minimum of 5 hours later, in serial dilutions in cell culture medium, in 100 μl volumes at 2× final concentration. Cell culture medium was removed after 4 (A2780, PC3 or LNCAP cells) or 6 days (MCF7 cells) by inversion of the plate onto blotting paper and cells were gently washed once with 200 μl PBS. Plates were frozen immediately for a minimum of one hour at −80° C. and then thawed. 200 μl of 1× CyQuant cell lysis buffer supplemented with dye, made according to the manufacturer's instruction, was added immediately to each well and incubated at room temperature for 3-5 minutes. Fluorescence was then measured for each well using a Cytofluor II Fluoresence Multiwell Plate Reader and CytoFluor II software with filters at 480 nm for excitation and 520 nm for emission maxima. Cell proliferation was determined for mean values of duplicate samples as percentages relative to untreated cell samples (=100%). […]

Test [3] has as its system MCF7 human breast cancer cells. As to the kind of experiment: Activity Assay 1: CyQuant cell proliferation assay, MCF7. The note with it: 144 h, MCF7, 6 days, mean ± SD of multiple experiments, read-out: mean IC50 for growth inhibition (±SD), MCF7. Here is the method: (§2) Method; Cell proliferation assays were performed using the CyQuant™ assay system (Molecular Probes, Inc. USA) according to the manufacturer's instructions. This system utilises a proprietary green fluorescent dye which undergoes strong fluorescent enhancement on binding cellular nucleic acids, to allow determination of cell number with a linear detection range between 50 to 250,000 cells. Estrogen receptor positive MCF7 breast cancer cells (ECAAC) and NHDF cells (Cambrex, UK) were plated in 96 well plates, at a density of 1000 cells in 100 μl of cell culture medium per well. Compounds were added a minimum of 5 hours later, in serial dilutions in cell culture medium, in 100 μl volumes at 2× final concentration. Six days later cell culture medium was removed by inversion of the plate onto blotting paper and cells were gently washed once with 200 μl PBS. […] Fluorescence was then measured for each well using a Cytofluor II Fluoresence Multiwell Plate Reader and CytoFluor II software with filters at 480 nm for excitation and 520 nm for emission maxima. Cell proliferation was determined for mean values of duplicate samples as percentages relative to untreated cell samples (=100%). […]
(§3) MCF7 and NHDF were incubated with the indicated concentrations of compounds. After 6 days cell growth relative to untreated cells (=100%) was determined using the CyQuant™ assay. […]

The subject of test [4] is A2780 ovarian cancer cells. As to the kind of experiment: Activity Assay 6: CyQuant cell growth inhibition, A2780. The note with it: Homo sapiens, 96 h, A2780, 4 days. Here is the method: as §1
For test [5], the system named is normal human dermal fibroblasts (NHDF). As to the kind of experiment: Activity Assay 1: CyQuant cell proliferation assay, NHDF. The note with it: 144 h, 6 days, SAHA value from single experiment performed in duplicate, read-out: mean IC50 for growth inhibition (±SD), NHDF. Here is the method:
as §2, §3

Another test relates to MCF7 breast cancer cells. As to the kind of experiment: Activity Assay 6: CyQuant cell growth inhibition, MCF7. The note with it: Homo sapiens, 144 h, MCF7, 6 days. Here is the method:
as §1

Molecules are shown by their SMILES.

In turn, `O=C(CCCCCCC(=O)Nc1ccccc1)NO` [SAHA, Suberoylanilide hydroxamic acid, reference compound] registered an inhibition at 0.2 µM in test [1] of 59%. The IC50 is 4000 nM in test [2]; 483 ± 109 nM in test [3]; 595 nM in test [4]; about 2000 nM in test [5]; 483 nM in the test with MCF7 breast cancer cells.
